No constants are given. Whether binding was seen depends on the method and setting. Some binding calls cover weakened binding; strength is not graded here.
Biological target: endogenous IL-7R (CD127) (human) (UniProt P16871)
Assay: Flow cytometry of TILs squeeze processed with mbIL-7 mRNA; binding inferred from loss of anti-IL-7R staining

Protein sequences, listed by entry. Tags and fused reporters are not part of them. Residues count along the entry.
UniProt P16871, residues 21-459: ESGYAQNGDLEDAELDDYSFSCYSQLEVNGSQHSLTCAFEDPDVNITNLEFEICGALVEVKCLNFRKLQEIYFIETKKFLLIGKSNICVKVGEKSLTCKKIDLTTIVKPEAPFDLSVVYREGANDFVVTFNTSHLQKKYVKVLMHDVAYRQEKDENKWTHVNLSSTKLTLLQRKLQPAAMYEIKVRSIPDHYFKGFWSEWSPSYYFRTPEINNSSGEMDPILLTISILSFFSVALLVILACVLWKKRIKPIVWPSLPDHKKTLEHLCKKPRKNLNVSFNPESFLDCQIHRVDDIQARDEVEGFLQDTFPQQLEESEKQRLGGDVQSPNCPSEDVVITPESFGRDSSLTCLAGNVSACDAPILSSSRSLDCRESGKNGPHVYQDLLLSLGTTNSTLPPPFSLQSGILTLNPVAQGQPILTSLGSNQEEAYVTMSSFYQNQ

- binding: binds
B1: membrane-bound IL-7 (ligand)
chain: MMVDGDNSHVEMKLAVDEEENADNNTKANVTKPKRCSGSICYGTIAVIVFFLIGFMIGYLGYCKSSDGPGETGGGGGSGGGGSGGGGSDCDIEGKDGKQYESVLMVSIDQLLDSMKEIGSNCLNNEFNFFKRHICDANKEGMFLFRAARKLRQFLKMNSTGDFDLHLLKVSEGTTILLNCTGQVKGRKPAALGEAQPTKSLEENKSLKEQKKLNDLCFLKRLLQEIKTCWNKILMGTKEH
